The values below come from patent US20040197338A1, “Respiratory syncytial virus” (priority 2001, published 2004).

Chains of the proteins cited; added tags and fusions are not shown.
UniProt P03421: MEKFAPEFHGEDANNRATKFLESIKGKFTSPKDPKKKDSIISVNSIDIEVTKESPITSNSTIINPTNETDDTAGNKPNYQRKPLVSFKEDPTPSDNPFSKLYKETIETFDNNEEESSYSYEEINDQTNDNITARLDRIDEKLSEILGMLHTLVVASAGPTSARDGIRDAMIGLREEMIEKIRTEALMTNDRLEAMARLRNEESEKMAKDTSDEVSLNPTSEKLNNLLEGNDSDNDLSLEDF
UniProt P03418: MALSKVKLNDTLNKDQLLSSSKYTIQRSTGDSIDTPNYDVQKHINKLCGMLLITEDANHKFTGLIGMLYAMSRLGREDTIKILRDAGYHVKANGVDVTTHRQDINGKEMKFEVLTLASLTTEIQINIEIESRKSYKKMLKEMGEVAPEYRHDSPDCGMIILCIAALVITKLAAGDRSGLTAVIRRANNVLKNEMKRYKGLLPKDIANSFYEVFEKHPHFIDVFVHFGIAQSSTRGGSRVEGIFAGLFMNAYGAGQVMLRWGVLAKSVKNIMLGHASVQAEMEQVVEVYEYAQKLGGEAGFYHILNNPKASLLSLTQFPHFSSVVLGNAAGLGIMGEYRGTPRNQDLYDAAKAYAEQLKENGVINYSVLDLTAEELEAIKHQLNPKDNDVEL

No constants are given. Whether binding was seen depends on the method and setting. In cells and extracts the contact can be indirect. Some entries that bind do so weakly or less than the wild type.

This experiment has as its target RSV P protein (phosphoprotein from RSV A2 infected CV-1 cells) (respiratory syncytial virus, A2 strain) (UniProt P03421). The experiment can be described thus: co-immunoprecipitation (RIPA) from RSV infected cell lysates (FIG. 2).

In the case of “RSV N protein (nucleocapsid protein from RSV A2 infected CV-1 cells) (from UniProt P03418 1-391)”, the binding result is reported as “binds”.
